Measured values reported in paper PMC3095642, “New Synthetic Thrombin Inhibitors: Molecular Design and Experimental Verification” (PLoS ONE, 2011).
Structures were worked out from names or drawings and are uncertain.

Assays:
[1] = target: thrombin generation in normal donor plasma (PPP) (Homo sapiens, UniProt P00734); assay: Thrombin generation test in plasma (endogenous thrombin potential, ETP); details: ratio of IC50 for ETP reduction in plasma to Ki in buffer system; tested form: iodide
[2] = target: Human thrombin (Homo sapiens, UniProt P00734); assay: Thrombin induced hydrolysis of specific substrates in buffer system; details: chromogenic substrate (SCHR), tested form: iodide

IC50(ETP)/Ki [1]: 49.2
IC50 ([2]; read-out: Inhibition of thrombin activity (in buffer system) IC50): 589 nM
Ki ([2]; read-out: Inhibition of thrombin activity (in buffer system) Ki, calculated assuming competitive type of inhibition): 50.8 nM
Compound: Cc1cc(OCC[n+]2ccc(N)nc2)cc(OS(=O)(=O)c2ccccc2)c1
